# Measured values: ChEMBL document CHEMBL3046476, “Qsar for Acetylcholinesterase and Butyrylcholinesterase Inhibition by Cardiovascular Drugs and Benzodiazepines” (Med Chem Res, 2005)
# Molecular target: Cholinesterase (Equus caballus, UniProt P81908)
# Experiment: Inhibition of Equus caballus (horse) serum butyrylcholinesterase (BChE) assessed as inhibition of BTCh hydrolysis by Ellman method
smiles,measurement,setting,value
CN1C(=O)CN=C(c2ccccc2)c2cc(Cl)ccc21 [DIAZEPAM],Ki,read-out: Ki,0.043 µM
same,Ki,read-out: pKi (converted),5.01 µM
